Data on 7 molecules can be found in paper PMC5548489.

By UniProt entry, the sequences of proteins in these tests, tags left out.
UniProt P03372: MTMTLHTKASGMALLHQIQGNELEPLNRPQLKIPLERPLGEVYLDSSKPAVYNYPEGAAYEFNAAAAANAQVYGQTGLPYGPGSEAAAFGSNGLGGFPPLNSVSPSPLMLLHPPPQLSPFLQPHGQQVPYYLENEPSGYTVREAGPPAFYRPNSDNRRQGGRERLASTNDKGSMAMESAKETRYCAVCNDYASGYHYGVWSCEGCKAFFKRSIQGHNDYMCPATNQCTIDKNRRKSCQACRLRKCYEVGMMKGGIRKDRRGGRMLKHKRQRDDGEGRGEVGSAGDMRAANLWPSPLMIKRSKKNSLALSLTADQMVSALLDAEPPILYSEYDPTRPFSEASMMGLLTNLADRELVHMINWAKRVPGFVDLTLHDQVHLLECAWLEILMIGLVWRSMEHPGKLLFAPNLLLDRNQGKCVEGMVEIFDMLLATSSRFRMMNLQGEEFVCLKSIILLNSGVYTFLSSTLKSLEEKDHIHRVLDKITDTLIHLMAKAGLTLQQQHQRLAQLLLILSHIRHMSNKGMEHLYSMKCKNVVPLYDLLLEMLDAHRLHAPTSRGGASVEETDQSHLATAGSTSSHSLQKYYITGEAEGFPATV

These are yes or no findings as the source states them, for the method shown. Binding seen in cells or lysates may run through a third protein. A yes stands for co-enrichment or nearness to the bait. Other partners may have been found.

B1: HNRNPR (protein, UniProt O43390 1-633)
chain: MANQVNGNAVQLKEEEEPMDTSSVTHTEHYKTLIEAGLPQKVAERLDEIFQTGLVAYVDLDERAIDALREFNEEGALSVLQQFKESDLSHVQNKSAFLCGVMKTYRQREKQGSKVQESTKGPDEAKIKALLERTGYTLDVTTGQRKYGGPPPDSVYSGVQPGIGTEVFVGKIPRDLYEDELVPLFEKAGPIWDLRLMMDPLSGQNRGYAFITFCGKEAAQEAVKLCDSYEIRPGKHLGVCISVANNRLFVGSIPKNKTKENILEEFSKVTEGLVDVILYHQPDDKKKNRGFCFLEYEDHKSAAQARRRLMSGKVKVWGNVVTVEWADPVEEPDPEVMAKVKVLFVRNLATTVTEEILEKSFSEFGKLERVKKLKDYAFVHFEDRGAAVKAMDEMNGKEIEGEEIEIVLAKPPDKKRKERQAARQASRSTAYEDYYYHPPPRMPPPIRGRGRGGGRGGYGYPPDYYGYEDYYDDYYGYDYHDYRGGYEDPYYGYDDGYAVRGRGGGRGGRGAPPPPRGRGAPPPRGRAGYSQRGAPLGPPRGSRGGRGGPAQQQRGRGSRGSRGNRGGNVGGKRKADGYNQPDSKRRQTNNQQNWGSQPIAQQPLQQGGDYSGNYGYNNDNQEFYQDTYGQQWK
B2: HNRNPLL (protein, UniProt Q8WVV9 1-542)
chain: MSSSSSSPRETYEEDREYESQAKRLKTEEGEIDYSAEEGENRREATPRGGGDGGGGGRSFSQPEAGGSHHKVSVSPVVHVRGLCESVVEADLVEALEKFGTICYVMMMPFKRQALVEFENIDSAKECVTFAADEPVYIAGQQAFFNYSTSKRITRPGNTDDPSGGNKVLLLSIQNPLYPITVDVLYTVCNPVGKVQRIVIFKRNGIQAMVEFESVLCAQKAKAALNGADIYAGCCTLKIEYARPTRLNVIRNDNDSWDYTKPYLGRRDRGKGRQRQAILGEHPSSFRHDGYGSHGPLLPLPSRYRMGSRDTPELVAYPLPQASSSYMHGGNPSGSVVMVSGLHQLKMNCSRVFNLFCLYGNIEKVKFMKTIPGTALVEMGDEYAVERAVTHLNNVKLFGKRLNVCVSKQHSVVPSQIFELEDGTSSYKDFAMSKNNRFTSAGQASKNIIQPPSCVLHYYNVPLCVTEETFTKLCNDHEVLTFIKYKVFDAKPSAKTLSGLLEWECKTDAVEALTALNHYQIRVPNGSNPYTLKLCFSTSSHL
B3: RBM14 (protein, UniProt Q96PK6 1-669)
chain: MKIFVGNVDGADTTPEELAALFAPYGTVMSCAVMKQFAFVHMRENAGALRAIEALHGHELRPGRALVVEMSRPRPLNTWKIFVGNVSAACTSQELRSLFERRGRVIECDVVKDYAFVHMEKEADAKAAIAQLNGKEVKGKRINVELSTKGQKKGPGLAVQSGDKTKKPGAGDTAFPGTGGFSATFDYQQAFGNSTGGFDGQARQPTPPFFGRDRSPLRRSPPRASYVAPLTAQPATYRAQPSVSLGAAYRAQPSASLGVGYRTQPMTAQAASYRAQPSVSLGAPYRGQLASPSSQSAAASSLGPYGGAQPSASALSSYGGQAAAASSLNSYGAQGSSLASYGNQPSSYGAQAASSYGVRAAASSYNTQGAASSLGSYGAQAASYGAQSAASSLAYGAQAASYNAQPSASYNAQSAPYAAQQAASYSSQPAAYVAQPATAAAYASQPAAYAAQATTPMAGSYGAQPVVQTQLNSYGAQASMGLSGSYGAQSAAAATGSYGAAAAYGAQPSATLAAPYRTQSSASLAASYAAQQHPQAAASYRGQPGNAYDGAGQPSAAYLSMSQGAVANANSTPPPYERTRLSPPRASYDDPYKKAVAMSKRYGSDRRLAELSDYRRLSESQLSFRRSPTKSSLDYRRLPDAHSDYARYSGSYNDYLRAAQMHSGYQRRM
B4: SMC1A (protein, UniProt Q14683 1-1233)
chain: MGFLKLIEIENFKSYKGRQIIGPFQRFTAIIGPNGSGKSNLMDAISFVLGEKTSNLRVKTLRDLIHGAPVGKPAANRAFVSMVYSEEGAEDRTFARVIVGGSSEYKINNKVVQLHEYSEELEKLGILIKARNFLVFQGAVESIAMKNPKERTALFEEISRSGELAQEYDKRKKEMVKAEEDTQFNYHRKKNIAAERKEAKQEKEEADRYQRLKDEVVRAQVQLQLFKLYHNEVEIEKLNKELASKNKEIEKDKKRMDKVEDELKEKKKELGKMMREQQQIEKEIKEKDSELNQKRPQYIKAKENTSHKIKKLEAAKKSLQNAQKHYKKRKGDMDELEKEMLSVEKARQEFEERMEEESQSQGRDLTLEENQVKKYHRLKEEASKRAATLAQELEKFNRDQKADQDRLDLEERKKVETEAKIKQKLREIEENQKRIEKLEEYITTSKQSLEEQKKLEGELTEEVEMAKRRIDEINKELNQVMEQLGDARIDRQESSRQQRKAEIMESIKRLYPGSVYGRLIDLCQPTQKKYQIAVTKVLGKNMDAIIVDSEKTGRDCIQYIKEQRGEPETFLPLDYLEVKPTDEKLRELKGAKLVIDVIRYEPPHIKKALQYACGNALVCDNVEDARRIAFGGHQRHKTVALDGTLFQKSGVISGGASDLKAKARRWDEKAVDKLKEKKERLTEELKEQMKAKRKEAELRQVQSQAHGLQMRLKYSQSDLEQTKTRHLALNLQEKSKLESELANFGPRINDIKRIIQSREREMKDLKEKMNQVEDEVFEEFCREIGVRNIREFEEEKVKRQNEIAKKRLEFENQKTRLGIQLDFEKNQLKEDQDKVHMWEQTVKKDENEIEKLKKEEQRHMKIIDETMAQLQDLKNQHLAKKSEVNDKNHEMEEIRKKLGGANKEMTHLQKEVTAIETKLEQKRSDRHNLLQACKMQDIKLPLSKGTMDDISQEEGSSQGEDSVSGSQRISSIYAREALIEIDYGDLCEDLKDAQAEEEIKQEMNTLQQKLNEQQSVLQRIAAPNMKAMEKLESVRDKFQETSDEFEAARKRAKKAKQAFEQIKKERFDRFNACFESVATNIDEIYKALSRNSSAQAFLGPENPEEPYLDGINYNCVAPGKRFRPMDNLSGGEKTVAALALLFAIHSYKPAPFFVLDEIDAALDNTNIGKVANYIKEQSTCNFQAIVISLKEEFYTKAESLIGVYPEQGDCVISKVLTFDLTKYPDANPNPNEQ
B5: SART1 (protein, UniProt O43290 1-800)
chain: MGSSKKHRGEKEAAGTTAAAGTGGATEQPPRHREHKKHKHRSGGSGGSGGERRKRSRERGGERGSGRRGAEAEARSSTHGRERSQAEPSERRVKREKRDDGYEAAASSKTSSGDASSLSIEETNKLRAKLGLKPLEVNAIKKEAGTKEEPVTADVINPMALRQREELREKLAAAKEKRLLNQKLGKIKTLGEDDPWLDDTAAWIERSRQLQKEKDLAEKRAKLLEEMDQEFGVSTLVEEEFGQRRQDLYSARDLQGLTVEHAIDSFREGETMILTLKDKGVLQEEEDVLVNVNLVDKERAEKNVELRKKKPDYLPYAEDESVDDLAQQKPRSILSKYDEELEGERPHSFRLEQGGTADGLRERELEEIRAKLRLQAQSLSTVGPRLASEYLTPEEMVTFKKTKRRVKKIRKKEKEVVVRADDLLPLGDQTQDGDFGSRLRGRGRRRVSEVEEEKEPVPQPLPSDDTRVENMDISDEEEGGAPPPGSPQVLEEDEAELELQKQLEKGRRLRQLQQLQQLRDSGEKVVEIVKKLESRQRGWEEDEDPERKGAIVFNATSEFCRTLGEIPTYGLAGNREEQEELMDFERDEERSANGGSESDGEENIGWSTVNLDEEKQQQDFSASSTTILDEEPIVNRGLAAALLLCQNKGLLETTVQKVARVKAPNKSLPSAVYCIEDKMAIDDKYSRREEYRGFTQDFKEKDGYKPDVKIEYVDETGRKLTPKEAFRQLSHRFHGKGSGKMKTERRMKKLDEEALLKKMSSSDTPLGTVALLQEKQKAQKTPYIVLSGSGKSMNANTITK
B6: Sfrs15 (protein, UniProt O95104 1-1147)
chain: MDAVNAFNQELFSLMDMKPPISRAKMILITKAAIKAIKLYKHVVQIVEKFIKKCKPEYKVPGLYVIDSIVRQSRHQFGTDKDVFGPRFSKNITATFQYLYLCPSEDKSKIVRVLNLWQKNGVFKIEIIQPLLDMAAGTSNAAPVAENVTNNEGSPPPPVKVSSEPPTQATPNSVPAVPQLPSSDAFAAVAQLFQTTQGQQLQQILQTFQQPPKPQSPALDNAVMAQVQAITAQLKTTPTQPSEQKAAFPPPEQKTAFDKKLLDRFDYDDEPEAVEESKKEDTTAVTTTAPAAAVPPAPTATVPAAAAPAAASPPPPQAPFGFPGDGMQQPAYTQHQNMDQFQPRMMGIQQDPMHHQVPLPPNGQMPGFGLLPTPPFPPMAQPVIPPTPPVQQPFQASFQAQNEPLTQKPHQQEMEVEQPCIQEVKRHMSDNRKSRSRSASRSPKRRRSRSGSRSRRSRHRRSRSRSRDRRRHSPRSRSQERRDREKERERRQKGLPQVKPETASVCSTTLWVGQLDKRTTQQDVASLLEEFGPIESINMIPPRGCAYIVMVHRQDAYRALQKLSRGNYKVNQKSIKIAWALNKGIKADYKQYWDVELGVTYIPWDKVKPEELESFCEGGMLDSDTLNPDWKGIPKKPENEVAQNGGAETSHTEPVSPIPKPLPVPVPPIPVPAPITVPPPQVPPHQPGPPVVGALQPPAFTPPLGIPPPGFGPGVPPPPPPPPFLRPGFNPMHLPPGFLPPGPPPPITPPVSIPPPHTPPISIPNSTIAGINEDTTKDLSIGNPIPTVVSGARGNAESGDSVKMYGSAVPPAAPTNLPTPPVTQPVSLLGTQGVAPGPVIGLQAPSTGLLGARPGLIPLQRPPGMPPPHLQRFPLMPPRPMPPHMMHRGPPPGPGGFAMPPPHGMKGPFPPHGPFVRPGGMPGLGGPGPGPGGPEDRDGRQQPPQQPQQQPQPQAPQQPQQQQQQQPPPSQQPPPTQQQPQQFRNDNRQQFNSGRDQERFGRRSFGNRVENDRERYGNRNDDRDNSNRDRREWGRRSPDRDRHRDLEERNRRSSGHRDRERDSRDRESRREKEEARGKEKPEVTDRAGGNKTVEPPISQVGNVDTASELEKGVSEAAVLKPSEELPAEATSSVEPEKDSGSAAEAPR
B7: SF1 (protein, UniProt Q15637 1-639)
chain: MATGANATPLDFPSKKRKRSRWNQDTMEQKTVIPGMPTVIPPGLTREQERAYIVQLQIEDLTRKLRTGDLGIPPNPEDRSPSPEPIYNSEGKRLNTREFRTRKKLEEERHNLITEMVALNPDFKPPADYKPPATRVSDKVMIPQDEYPEINFVGLLIGPRGNTLKNIEKECNAKIMIRGKGSVKEGKVGRKDGQMLPGEDEPLHALVTANTMENVKKAVEQIRNILKQGIETPEDQNDLRKMQLRELARLNGTLREDDNRILRPWQSSETRSITNTTVCTKCGGAGHIASDCKFQRPGDPQSAQDKARMDKEYLSLMAELGEAPVPASVGSTSGPATTPLASAPRPAAPANNPPPPSLMSTTQSRPPWMNSGPSESRPYHGMHGGGPGGPGGGPHSFPHPLPSLTGGHGGHPMQHNPNGPPPPWMQPPPPPMNQGPHPPGHHGPPPMDQYLGSTPVGSGVYRLHQGKGMMPPPPMGMMPPPPPPPSGQPPPPPSGPLPPWQQQQQQPPPPPPPSSSMASSTPLPWQQNTTTTTTSAGTGSIPPWQQQQAAAAASPGAPQMQGNPTMVPLPPGVQPPLPPGAPPPPPPPPPGSAGMMYAPPPPPPPPMDPSNFVTMMGMGVAGMPPFGMPPAPPPPPPQN

The target of the assay is estrogen receptor alpha (ER) (human (endogenous in MCF-7 and ZR-75)) (UniProt P03372). The experiment in a line: affinity purification with mass spectrometry; anti-ER antibody (Santa Cruz sc-8002) on Dynabeads Protein G, 1.5 mg lysate of MCF-7 or ZR-75 cells overnight at 4°C; cells starved, vehicle or 10 µM ERX-11 for 2 hr, then 10 nM E2 for 2 hr; the named proteins are ER binders whose co-precipitation was disrupted by ERX-11.
B1: the binding result is “binds”.
To B2 belongs “binds”; to B3, “binds”.
To B4 belongs “binds”.
For the molecule B5, the binding result is recorded as “binds”.
As to B6, the binding entry is reported as “binds”.
Regarding B7, the binding result is “binds”.
